Laboratory results: PubChem BioAssay AID1508588 (Peter MacCallum Cancer Centre, 2020)

Assay: 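Which gene losses make BRAF-mutant melanoma cells more responsive to vemurafenib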 (primary screen)
Cells: human WM266.4 melanoma cells (BRAF V600 mutant)
Reagents: siRNA pool against human genes, 40 nM
Time to read-out: 96 h from transfection to read-out
Treatment: vemurafenib 300 nM (about IC25), added 48 h after transfection, for 48 h; comparison arm got DMSO vehicle only
Detection: 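Ratios to non-targeting siRNA for cell gain, counted as DAPI nuclei after minus before drug and averaged over two replicates, and for absorbance-read medium lactate per cell; both binned into fold-change classes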
Direction: cell gain with vemurafenib: higher = more cell gain than with non-targeting siRNA; lactate per cell with vemurafenib: higher = more lactate made per cell
Rule for the call: 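Enhancement is called by pairing each knock-down's vehicle-arm and drug-arm fold-change classes for viability or glycolysis; which class combinations qualify is not given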
Meaning of the calls: active = enhances vemurafenib effect; inactive = no enhancement seen
In all, the deposit lists about 18,000 reagents; below is a part drawn at random. Over the whole deposit, 790 (4.4%) are marked active. 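Calls rest on a combination of fold-change classes in drug and vehicle arms, not all shown here.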

gene	cell gain with vemurafenib	lactate per cell with vemurafenib	Call
TEX13A	0.35	0.57	active
RPS27L	0.73	0.84	inactive
MKRN1	0.87	0.75	inactive
PABIR3	0.46	1.28	inactive
NEK10	0.68	0.79	inactive
RAB14	1.05	0.56	inactive
HELZ2	0.58	1.48	inactive
BDNF	0.67	0.52	inactive
OR52A5	0.15	1.64	inactive
USP6NL	0.39	0.82	inactive
COX8A	0.76	0.84	inactive
MRPL28	0.7	0.75	inactive
CTSL	0.78	0.66	inactive
ERCC2	0.53	0.82	inactive
CCDC140	0.61	1.7	inactive
KLHL5	0.6	0.81	inactive
PITPNM1	0.71	0.74	inactive
SNX32	0.56	0.88	inactive
SEMA4F	0	0	inactive
GINS2	0.34	2.27	inactive
ERMN	0.69	0.66	inactive
LINC00518	0.91	0.68	inactive
NLN	0.55	0.62	inactive
CKAP5	-0.07	0.74	inactive
VAMP4	0.08	0.86	inactive
GALNTL6	0.75	1.42	inactive
APOM	0.49	0.93	inactive
COPB2	-0.11	1.03	inactive
GFM1	1.07	0.55	inactive
GNA15	0.41	0.86	inactive
NT5C2	0.85	1.11	inactive
IL21	0.87	0.82	inactive
CD5L	0.83	0.74	inactive
ING2	0.22	1.42	inactive

Reformatted: results already given.
| gene | cell gain with vemurafenib | lactate per cell with vemurafenib | Call |
| --- | --- | --- | --- |
| USP6NL | 0.39 | 0.82 | inactive |
| COX8A | 0.76 | 0.84 | inactive |
| MRPL28 | 0.7 | 0.75 | inactive |
| CTSL | 0.78 | 0.66 | inactive |
| ERCC2 | 0.53 | 0.82 | inactive |
| CCDC140 | 0.61 | 1.7 | inactive |
